# Screen size: about 260,000 compounds; about 1,500 (0.58%) were called active. Inconclusive means that the source gave no clear call. Such entries were picked first, then a sample of the others.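 How the source made its calls: active means inhibition above a set limit at one or more doses, reproduced on every date tested; inconclusive means results disagree between test dates, or hit never tested in dose response; inactive means the rest.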
# Protein sequences, listed by entry. Tags and fused reporters are not part of them. Lines headed by an entry give the natural chain unless they say otherwise; changes in a name come on top.
# UniProt P69720: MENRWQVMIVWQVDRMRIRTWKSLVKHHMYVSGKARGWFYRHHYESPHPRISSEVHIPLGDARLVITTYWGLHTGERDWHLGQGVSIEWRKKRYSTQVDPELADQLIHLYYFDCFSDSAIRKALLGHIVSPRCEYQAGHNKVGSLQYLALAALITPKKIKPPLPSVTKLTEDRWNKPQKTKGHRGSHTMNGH
# UniProt P69721: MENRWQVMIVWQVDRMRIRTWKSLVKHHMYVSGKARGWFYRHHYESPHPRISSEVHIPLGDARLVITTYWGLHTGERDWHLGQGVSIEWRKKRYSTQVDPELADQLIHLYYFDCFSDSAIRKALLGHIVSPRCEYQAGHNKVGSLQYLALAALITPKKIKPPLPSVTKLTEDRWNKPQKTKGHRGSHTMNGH
# UniProt P69722: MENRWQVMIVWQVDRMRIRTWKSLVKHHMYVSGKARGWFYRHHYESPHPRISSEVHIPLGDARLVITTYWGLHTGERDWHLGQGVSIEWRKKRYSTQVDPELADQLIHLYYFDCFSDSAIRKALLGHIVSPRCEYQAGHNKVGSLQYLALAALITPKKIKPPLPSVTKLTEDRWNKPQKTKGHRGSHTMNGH
# UniProt P69723: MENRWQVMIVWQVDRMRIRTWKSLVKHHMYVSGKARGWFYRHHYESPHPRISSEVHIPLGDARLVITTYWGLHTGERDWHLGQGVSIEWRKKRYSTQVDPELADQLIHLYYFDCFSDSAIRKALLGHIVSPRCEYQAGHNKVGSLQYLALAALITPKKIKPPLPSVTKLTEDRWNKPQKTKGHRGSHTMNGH
# UniProt Q9HC16: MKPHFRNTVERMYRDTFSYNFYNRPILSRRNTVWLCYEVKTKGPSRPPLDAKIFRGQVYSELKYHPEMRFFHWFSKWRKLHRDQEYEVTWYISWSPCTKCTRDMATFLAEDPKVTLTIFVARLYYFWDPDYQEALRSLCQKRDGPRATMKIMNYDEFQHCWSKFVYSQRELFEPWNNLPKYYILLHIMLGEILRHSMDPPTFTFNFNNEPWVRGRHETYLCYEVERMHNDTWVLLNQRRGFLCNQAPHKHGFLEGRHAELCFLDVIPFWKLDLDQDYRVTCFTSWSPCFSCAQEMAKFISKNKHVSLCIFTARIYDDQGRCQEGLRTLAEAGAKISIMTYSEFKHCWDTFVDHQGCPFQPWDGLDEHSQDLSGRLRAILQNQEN
# Biological target: Virion infectivity factor (Human immunodeficiency virus type 1 group M subtype B (isolate BH10)) + Virion infectivity factor (Human immunodeficiency virus type 1 group M subtype B (isolate BRU/LAI)) + Virion infectivity factor (Human immunodeficiency virus type 1 group M subtype B (isolate PCV12)) + Virion infectivity factor (Human immunodeficiency virus type 1 group M subtype B (isolate HXB2)) + DNA dC->dU-editing enzyme APOBEC-3G (Homo sapiens) (UniProt P69720+P69721+P69722+P69723+Q9HC16)
# Assay: inhibitors of Vif binding to APOBEC3G peptide, primary screen, biochemical, TR-FRET, GST-Vif 1-94, biotin-A3G peptide, dose response retest (AID 1117319);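 further: Vif residues 1-94 fused to GST binding biotinylated APOBEC3G peptide 110-148; 0% = full assay without inhibitor and 100% = GST in place of GST-Vif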
# Settings: active compounds read high
row,SMILES,inhibition
1,CC1CC(=O)c2cnc(NCc3ccco3)nc2C1 (centres undefined),inconclusive: 56.6%
2,Cc1cccc(CCNC(=O)CCc2c(C)nc3ncnn3c2C)c1,inconclusive: 34.1%
3,CCS(=O)(=O)Nc1ccc(-c2nnc(SCC(=O)OC)o2)cc1,inconclusive: 56.6%
4,CCN(CC)C(=O)Oc1ccc2c(c1)O/C(=C\c1ccco1)C2=O,inactive: 12.6%
5,CC(C)Cn1c(N)c(C(=O)CCl)c(=O)n(C)c1=O,inconclusive: 51.7%
6,CCCN1C(=O)/C(=C/c2ccc(C)o2)SC1=Nc1ccc(OCC)cc1,inconclusive: 56.8%
7,Cn1cc(CN2CCCC(C(=O)c3ccc(-c4ccccc4)c(F)c3)C2)cn1 (centres undefined),inconclusive: 57%
8,COc1ccccc1N1CCN(C(CNS(C)(=O)=O)c2cccnc2)CC1 (centres undefined),inconclusive: 45.5%
9,CC1=NC(=O)C(N=Nc2cccc(O)c2)N1c1ccccc1 (centres undefined),inconclusive: 38.2%
10,COc1ccc(OCCCC(=O)Nc2nncs2)cc1,inconclusive: 51%
11,COc1ccc2[nH]c(C)c(CCNC(=S)Nc3ccccc3C)c2c1,inactive: -0.27%
12,COc1cc(CCC(=O)Nc2cc(Cl)ccc2N2CCN(C)CC2)cc(OC)c1OC,inconclusive: 39.4%
13,OCCN(CCO)c1ncnc2c1oc1ccc(Br)cc12,inconclusive: 37.6%
14,CCOc1ccc(N/C(=N/c2nc(C)cc(C)n2)NC(C)=O)cc1,inconclusive: 34.1%
15,COc1ccc(S(=O)(=O)N2CCC3(CC2)CC(=O)c2ccccc2O3)cc1OC,inactive: 5.1%
16,O=C1C2=C(CCCC2)C(=O)N1c1cccc(OCCBr)c1,inconclusive: 35.8%
17,Cc1nc(/N=C\N(C)C)sc1C(=O)Nc1ccccc1,inconclusive: 41.6%
18,COc1ccc(C(C(=O)NC2CCCC2)N(Cc2ccc(C)cc2)C(=O)c2ccn[nH]2)cc1OC (centres undefined),inconclusive: 49.1%
19,C/C(=N\NC(=O)CCc1ccc(S(=O)(=O)N2CCOCC2)cc1)c1ccc(OC(F)F)cc1,inactive: 18.9%
20,Cn1cnc(S(=O)(=O)NCc2ccccc2)c1,inconclusive: 38.1%

# An excerpt of these results, bar-delimited.
row | SMILES | inhibition
8 | COc1ccccc1N1CCN(C(CNS(C)(=O)=O)c2cccnc2)CC1 (centres undefined) | inconclusive: 45.5%
9 | CC1=NC(=O)C(N=Nc2cccc(O)c2)N1c1ccccc1 (centres undefined) | inconclusive: 38.2%
10 | COc1ccc(OCCCC(=O)Nc2nncs2)cc1 | inconclusive: 51%

# Further structures follow:

row,SMILES,inhibition
1,O=C(CN1CCN(c2ccc(O)cc2)CC1)Nc1ccc2c(c1)OCCO2,inconclusive: 40.5%
2,O=C(O)c1ccc(S(=O)(=O)c2ccccc2C(=O)O)c([N+](=O)[O-])c1,inactive: -4.06%
3,C=CCOc1c(Br)cc(/C=N/Nc2ccc(C(=O)O)cc2)cc1OCC,inconclusive: 59.1%
4,CC1CCCCN1CC(=O)Nc1sccc1C#N (centres undefined),inconclusive: 21.1%
5,CCc1c(C)nc2cc(-c3ccc(Cl)cc3)[nH]n2c1=O,inconclusive: 51.4%
6,Cc1nc(C)c(-c2csc(Nc3ccc(O)cc3C)n2)s1,inconclusive: 37.2%
7,Cn1cccc1Cc1nnc(SCC(=O)Nc2ccc3c(c2)OCO3)n1CCc1ccccc1,inconclusive: 40.8%
8,O=c1[nH]nc(SCc2ccccc2)c(=O)[nH]1,inconclusive: 59.6%
9,CC(C)n1c(SCC(=O)Nc2ccccc2)nc2c1c(=O)n(C)c(=O)n2C,inconclusive: 49.1%
10,Cc1cc(C)cc(NCc2cc3c(cc2[N+](=O)[O-])OCO3)c1,inconclusive: 64.7%
11,CCC(=NCc1ccccc1)C1=C(O)C(C(=O)OC)C(C)(C)CC1=O (centres undefined),inactive: 5.76%
12,Brc1ccccc1-c1nnc(COc2cccc3cccnc23)o1,inconclusive: 43.5%
13,CCC(c1nnnn1Cc1ccco1)N(Cc1ccccc1OC)Cc1cc2cc(C)ccc2[nH]c1=O (centres undefined),inconclusive: 70.1%
14,COc1ccccc1-c1nc(S(=O)(=O)c2ccc(Cl)cc2)c(N(C)C)o1,inconclusive: 49%
15,COc1cc(-c2nnc3n2CCCCC3)cc(OC)c1OC,inactive: -1.21%
16,COc1cc(CCN2C(=O)c3cccc4cccc(c34)C2=O)c(S(=O)(=O)N2CCCCCC2)cc1OC,inconclusive: 44.1%
17,CC1(C)CC(=O)c2cc(C(=O)NC3CCSC3=O)c(=O)n(-c3ccc(Cl)cc3)c2C1 (centres undefined),inconclusive: 35.7%
18,Cc1nn(C)c2c(=O)c(=O)c2n(C)[nH]1,inconclusive: 53.1%
19,O=[N+]([O-])c1ccc(OCCO)nc1,inconclusive: 40.3%
20,Cn1nccc1C(=O)Nc1sc2c(c1C(N)=O)CCCC2,inconclusive: 51.7%

row,SMILES,inhibition
1,O=C(CN1C(=O)COc2ccccc21)Nc1ccc(F)cc1,inconclusive: 36%
2,COC(=O)Cc1c(C)c2c(OCc3nn[nH]n3)cc(C)cc2oc1=O,inconclusive: 41.9%
3,COC(=O)CSc1nc2c(c(-c3ccco3)c1C#N)CCCC2,inconclusive: 30.3%
4,Nc1ccc2c(c1)-c1ccccc1S(=O)(=O)N2,inconclusive: 51.3%
5,COc1ccc(NC(=S)NNC(=S)Nc2cccc(C(F)(F)F)c2)cc1,inconclusive: 42.2%
6,Cn1ncc2c(Nc3cccc4ccccc34)ncnc21,inconclusive: 33%
7,O=C1CC(Sc2ncccc2C(=O)O)C(=O)N1 (centres undefined),inactive: 5.46%
8,COC(=O)c1ccccc1S(=O)(=O)Nc1ccc(OC)nc1,inconclusive: 38.7%
9,COC(=O)c1ccc(N=NN2CCCCCC2)cc1,inconclusive: 37.9%
10,CCN1CCN(CCCOc2ccc(Cl)cc2Br)CC1,inconclusive: 43%
11,CC1CC1C(=O)Nc1nc(-c2ccccn2)cs1 (centres undefined),inconclusive: 44.3%
12,COc1ccc(/C=C/C(=O)N(C(C)C)C(C)C)cc1Br,inconclusive: 52.2%
13,COc1ccc(C(=O)Nc2ccc(NC(=O)c3ccco3)c(Cl)c2)cc1OC,inconclusive: 34.7%
14,Cc1cc(Oc2ccc([N+](=O)[O-])cc2)nc(N2CCOCC2)n1,inconclusive: 37.1%
15,COC(=O)CSc1nnc(CNC(=O)c2cccs2)n1-c1cccc(C)c1,inconclusive: 46.7%
16,Cc1ccc(O)c(-c2cc(-c3cccc(F)c3)n[nH]2)c1,inconclusive: 35.5%
17,CN(C)S(=O)(=O)c1cccc(-c2csc(N/N=C/c3ccco3)n2)c1,inconclusive: 57.5%
18,CCn1c(C)c(C(C)=O)c(N2CCN(c3ccccc3)CC2)nc1=S,inconclusive: 43.3%
19,CCC(C)C(NC(N)=O)C(=O)NC1CCC(C)CC1 (centres undefined),inconclusive: 43.5%
